From patent US20040235096 come the findings set out here.

Chains of the proteins cited; added tags and fusions are not shown. Chains listed by the source or under a name are the forms on record and can include a tag or linker.
UniProt Q06219, whole entry: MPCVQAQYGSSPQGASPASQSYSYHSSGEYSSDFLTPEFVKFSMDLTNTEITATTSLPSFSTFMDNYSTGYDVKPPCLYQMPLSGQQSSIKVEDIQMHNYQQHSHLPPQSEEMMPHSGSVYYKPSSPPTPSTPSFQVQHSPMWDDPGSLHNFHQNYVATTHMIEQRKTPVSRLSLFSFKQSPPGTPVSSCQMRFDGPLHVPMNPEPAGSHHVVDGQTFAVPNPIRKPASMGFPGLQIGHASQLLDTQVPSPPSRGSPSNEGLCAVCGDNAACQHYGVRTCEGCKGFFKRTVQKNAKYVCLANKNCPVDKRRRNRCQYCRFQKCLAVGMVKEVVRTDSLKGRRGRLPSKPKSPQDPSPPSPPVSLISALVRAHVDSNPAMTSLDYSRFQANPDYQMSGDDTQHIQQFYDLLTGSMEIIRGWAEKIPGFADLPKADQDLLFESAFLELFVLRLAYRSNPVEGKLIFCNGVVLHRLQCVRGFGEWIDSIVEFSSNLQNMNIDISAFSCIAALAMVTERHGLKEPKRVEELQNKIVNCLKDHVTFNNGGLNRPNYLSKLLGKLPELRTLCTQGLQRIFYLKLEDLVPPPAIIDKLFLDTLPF
Nurr1/p57Kip2 complex (Mus musculus), one chain, as listed by the source, chain 2 of 2: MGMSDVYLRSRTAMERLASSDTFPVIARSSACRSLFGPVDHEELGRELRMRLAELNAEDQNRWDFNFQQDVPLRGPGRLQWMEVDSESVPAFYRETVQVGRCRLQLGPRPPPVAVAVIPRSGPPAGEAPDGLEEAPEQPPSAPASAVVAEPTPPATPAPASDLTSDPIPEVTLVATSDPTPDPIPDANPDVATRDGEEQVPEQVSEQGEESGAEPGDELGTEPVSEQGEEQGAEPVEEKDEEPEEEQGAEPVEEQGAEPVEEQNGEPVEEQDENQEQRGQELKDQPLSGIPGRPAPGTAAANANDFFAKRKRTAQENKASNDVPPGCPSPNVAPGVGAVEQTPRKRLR
Nurr1/p57Kip2 complex (Mus musculus), one chain, as listed by the source, chain 1 of 2: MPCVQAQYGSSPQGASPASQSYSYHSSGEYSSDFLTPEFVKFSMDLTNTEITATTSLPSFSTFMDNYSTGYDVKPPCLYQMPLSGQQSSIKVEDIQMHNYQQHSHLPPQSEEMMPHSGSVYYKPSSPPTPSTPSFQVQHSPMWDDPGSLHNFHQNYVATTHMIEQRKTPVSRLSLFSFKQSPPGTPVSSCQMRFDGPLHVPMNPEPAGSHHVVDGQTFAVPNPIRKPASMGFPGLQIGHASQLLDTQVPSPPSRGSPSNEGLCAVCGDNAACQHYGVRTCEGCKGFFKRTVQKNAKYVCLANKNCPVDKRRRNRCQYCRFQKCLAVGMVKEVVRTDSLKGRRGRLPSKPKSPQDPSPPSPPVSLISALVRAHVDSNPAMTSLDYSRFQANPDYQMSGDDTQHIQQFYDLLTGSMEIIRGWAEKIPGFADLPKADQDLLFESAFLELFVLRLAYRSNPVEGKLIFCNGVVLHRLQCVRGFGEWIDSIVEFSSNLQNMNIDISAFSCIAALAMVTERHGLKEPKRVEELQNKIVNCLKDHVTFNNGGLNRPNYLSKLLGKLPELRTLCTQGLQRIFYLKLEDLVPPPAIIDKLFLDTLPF

Data set [1] has as its target Nurr1 (Mus musculus) (UniProt Q06219). The experiment in a line: EMSA. The settings on record: shift seen by autoradiography; protein in an extract; protein details: FLAG, nuclear extract of transfected HEK293 cells; label: 32P.
The subject of data set [2] is Nurr1/p57Kip2 complex (Mus musculus). The experiment in a line: EMSA. The settings on record: supershift of Nurr1/p57Kip2 complex on NBRE; HA antibody abolished binding of p57Kip2 to NBRE-bound Nurr1; protein in an extract; label: 32P.

Where cells or extracts were used, other partners may take part.

As to “AGCTTGAGTTTTAAAAGGTCATGCTCAATTT (double strand) [NBRE probe]”, the binding result in data set [1] and in data set [2] was “binds” throughout.
